No constants are given. Whether binding was seen depends on the method and setting. Binding seen in cells or lysates may run through a third protein. These calls come from enrichment with a bait or labelling near it, and not all partners need be listed.
Target: T1, YOD1 (mouse (endogenous in RAW264.7 cells and BMDMs)) (UniProt Q8CB27)
T1 sequence: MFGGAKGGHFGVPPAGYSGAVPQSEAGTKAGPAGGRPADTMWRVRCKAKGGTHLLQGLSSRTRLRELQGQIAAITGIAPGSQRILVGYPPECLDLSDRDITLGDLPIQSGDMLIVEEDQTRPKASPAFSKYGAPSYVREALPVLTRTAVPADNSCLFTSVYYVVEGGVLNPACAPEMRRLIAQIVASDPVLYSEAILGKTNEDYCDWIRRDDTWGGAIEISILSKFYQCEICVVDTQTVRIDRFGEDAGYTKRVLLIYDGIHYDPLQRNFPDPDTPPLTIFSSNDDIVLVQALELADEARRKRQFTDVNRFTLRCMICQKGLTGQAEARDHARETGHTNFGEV
Assay: affinity purification with mass spectrometry; YOD1 and interacting proteins immunoprecipitated from RAW264.7 cells, untreated (resting) or LPS 500 ng/ml 30 min (activation); performed only once

By UniProt entry, the sequences of proteins in these tests, tags left out.
UniProt P58801: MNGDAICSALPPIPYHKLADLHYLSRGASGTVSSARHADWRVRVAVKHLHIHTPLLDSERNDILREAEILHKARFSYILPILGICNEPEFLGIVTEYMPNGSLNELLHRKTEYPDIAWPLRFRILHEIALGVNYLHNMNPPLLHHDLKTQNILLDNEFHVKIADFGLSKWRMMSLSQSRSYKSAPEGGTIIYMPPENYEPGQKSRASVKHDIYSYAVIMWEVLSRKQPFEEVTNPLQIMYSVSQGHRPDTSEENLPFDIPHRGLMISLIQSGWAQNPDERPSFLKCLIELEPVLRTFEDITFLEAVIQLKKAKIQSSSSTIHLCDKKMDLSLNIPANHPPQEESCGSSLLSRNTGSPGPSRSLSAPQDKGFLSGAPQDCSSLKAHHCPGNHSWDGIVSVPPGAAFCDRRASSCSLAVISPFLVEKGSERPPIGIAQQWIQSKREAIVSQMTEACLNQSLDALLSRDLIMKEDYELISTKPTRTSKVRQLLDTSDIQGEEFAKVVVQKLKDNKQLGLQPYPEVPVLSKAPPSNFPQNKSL

For “receptor-interacting serine/threonine kinase 2 (RIPK2) (from UniProt P58801 1-539)”, which binding is on record?
The binding was “binds”.
